The assay addresses T1, autophagy-related protein 9B (ATG9B), endogenous (human (endogenous in SW620, LoVo, SW480)) (UniProt Q674R7).
T1 sequence: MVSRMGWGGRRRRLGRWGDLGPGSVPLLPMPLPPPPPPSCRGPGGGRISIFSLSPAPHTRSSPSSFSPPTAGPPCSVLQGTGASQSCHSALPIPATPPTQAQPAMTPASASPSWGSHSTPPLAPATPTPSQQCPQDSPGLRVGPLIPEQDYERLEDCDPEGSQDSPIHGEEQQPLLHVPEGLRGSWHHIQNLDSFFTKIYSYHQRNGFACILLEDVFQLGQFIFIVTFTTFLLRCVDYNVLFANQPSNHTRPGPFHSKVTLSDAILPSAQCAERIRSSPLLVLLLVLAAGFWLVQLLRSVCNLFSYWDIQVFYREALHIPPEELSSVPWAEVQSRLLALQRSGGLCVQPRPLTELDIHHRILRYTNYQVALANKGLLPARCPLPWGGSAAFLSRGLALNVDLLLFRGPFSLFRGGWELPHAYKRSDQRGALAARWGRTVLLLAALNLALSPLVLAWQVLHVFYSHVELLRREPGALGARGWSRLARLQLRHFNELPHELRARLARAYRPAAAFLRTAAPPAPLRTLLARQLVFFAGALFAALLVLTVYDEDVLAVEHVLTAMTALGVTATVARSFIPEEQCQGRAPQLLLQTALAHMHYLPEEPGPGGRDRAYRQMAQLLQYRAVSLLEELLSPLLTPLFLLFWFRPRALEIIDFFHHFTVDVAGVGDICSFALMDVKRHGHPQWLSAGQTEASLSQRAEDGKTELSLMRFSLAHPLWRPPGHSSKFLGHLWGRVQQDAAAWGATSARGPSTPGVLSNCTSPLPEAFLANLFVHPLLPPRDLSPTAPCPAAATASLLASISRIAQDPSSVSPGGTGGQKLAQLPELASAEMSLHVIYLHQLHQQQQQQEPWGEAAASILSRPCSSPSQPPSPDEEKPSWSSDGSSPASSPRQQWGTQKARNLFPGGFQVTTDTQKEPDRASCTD
Nature of the assay: affinity purification with mass spectrometry; LoVo and SW620 lysates, immunoprecipitation with anti-ATG9B antibody or rabbit IgG, silver staining, differential band at >170 KD analysed by LC-MS.

By UniProt entry, the sequences of proteins in these tests, tags left out.
UniProt Q9Y490: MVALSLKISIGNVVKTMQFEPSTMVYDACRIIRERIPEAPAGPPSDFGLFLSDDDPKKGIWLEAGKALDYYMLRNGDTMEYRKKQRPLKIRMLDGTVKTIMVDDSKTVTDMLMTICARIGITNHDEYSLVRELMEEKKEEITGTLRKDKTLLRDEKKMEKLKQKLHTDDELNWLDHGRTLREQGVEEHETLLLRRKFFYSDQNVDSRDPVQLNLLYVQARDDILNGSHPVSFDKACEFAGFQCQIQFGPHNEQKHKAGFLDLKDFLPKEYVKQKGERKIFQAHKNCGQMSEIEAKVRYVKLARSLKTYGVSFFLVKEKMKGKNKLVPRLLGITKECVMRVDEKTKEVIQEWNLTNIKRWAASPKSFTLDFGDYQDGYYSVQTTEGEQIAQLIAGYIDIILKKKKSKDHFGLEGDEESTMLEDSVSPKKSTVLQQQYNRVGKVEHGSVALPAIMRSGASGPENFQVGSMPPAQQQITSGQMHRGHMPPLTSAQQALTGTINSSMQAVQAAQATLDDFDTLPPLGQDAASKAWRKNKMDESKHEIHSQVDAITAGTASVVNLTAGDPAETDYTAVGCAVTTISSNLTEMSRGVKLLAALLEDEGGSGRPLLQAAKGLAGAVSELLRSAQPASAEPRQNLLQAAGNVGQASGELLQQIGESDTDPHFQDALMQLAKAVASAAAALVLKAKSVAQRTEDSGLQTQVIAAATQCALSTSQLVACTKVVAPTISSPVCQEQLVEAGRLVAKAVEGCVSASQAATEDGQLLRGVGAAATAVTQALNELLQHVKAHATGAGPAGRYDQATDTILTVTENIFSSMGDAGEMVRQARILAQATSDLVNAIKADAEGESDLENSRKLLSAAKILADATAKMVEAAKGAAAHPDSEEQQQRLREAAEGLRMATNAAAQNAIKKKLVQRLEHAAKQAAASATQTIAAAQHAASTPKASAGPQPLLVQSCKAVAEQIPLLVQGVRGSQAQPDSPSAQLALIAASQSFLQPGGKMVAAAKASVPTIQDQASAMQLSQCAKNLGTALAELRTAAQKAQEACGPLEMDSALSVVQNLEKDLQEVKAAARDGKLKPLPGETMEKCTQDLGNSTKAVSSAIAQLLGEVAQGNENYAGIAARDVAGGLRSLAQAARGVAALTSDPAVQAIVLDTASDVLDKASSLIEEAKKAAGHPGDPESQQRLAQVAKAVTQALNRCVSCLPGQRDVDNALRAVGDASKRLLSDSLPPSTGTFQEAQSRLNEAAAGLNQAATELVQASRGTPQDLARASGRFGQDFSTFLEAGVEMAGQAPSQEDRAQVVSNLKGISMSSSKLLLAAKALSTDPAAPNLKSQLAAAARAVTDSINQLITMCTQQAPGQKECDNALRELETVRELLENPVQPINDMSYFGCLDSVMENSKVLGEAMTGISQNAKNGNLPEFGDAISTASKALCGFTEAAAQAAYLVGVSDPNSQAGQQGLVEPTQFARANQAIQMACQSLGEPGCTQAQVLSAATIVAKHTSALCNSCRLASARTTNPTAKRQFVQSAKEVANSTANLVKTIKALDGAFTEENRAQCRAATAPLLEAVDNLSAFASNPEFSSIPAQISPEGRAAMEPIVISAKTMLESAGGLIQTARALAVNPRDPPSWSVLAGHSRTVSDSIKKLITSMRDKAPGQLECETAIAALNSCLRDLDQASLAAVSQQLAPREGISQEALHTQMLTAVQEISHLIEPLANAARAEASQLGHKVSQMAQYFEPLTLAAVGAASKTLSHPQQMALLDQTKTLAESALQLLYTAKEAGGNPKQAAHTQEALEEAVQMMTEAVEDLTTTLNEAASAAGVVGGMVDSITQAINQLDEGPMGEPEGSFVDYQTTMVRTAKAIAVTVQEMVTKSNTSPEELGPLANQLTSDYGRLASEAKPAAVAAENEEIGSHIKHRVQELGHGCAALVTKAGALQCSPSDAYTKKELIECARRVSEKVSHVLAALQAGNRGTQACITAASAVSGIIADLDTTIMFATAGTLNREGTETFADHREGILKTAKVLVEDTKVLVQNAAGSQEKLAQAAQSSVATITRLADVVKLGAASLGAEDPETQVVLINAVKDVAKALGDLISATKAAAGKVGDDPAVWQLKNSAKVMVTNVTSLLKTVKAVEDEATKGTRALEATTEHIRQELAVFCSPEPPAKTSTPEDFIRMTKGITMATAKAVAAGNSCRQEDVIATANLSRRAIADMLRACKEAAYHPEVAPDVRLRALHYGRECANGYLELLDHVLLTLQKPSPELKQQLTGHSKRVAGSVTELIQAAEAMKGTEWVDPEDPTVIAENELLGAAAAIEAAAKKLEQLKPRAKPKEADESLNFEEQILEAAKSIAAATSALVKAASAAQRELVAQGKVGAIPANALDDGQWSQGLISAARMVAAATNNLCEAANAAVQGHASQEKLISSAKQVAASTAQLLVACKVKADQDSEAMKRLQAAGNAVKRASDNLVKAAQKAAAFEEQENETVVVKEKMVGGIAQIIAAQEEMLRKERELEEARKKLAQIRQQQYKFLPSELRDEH
UniProt P35579: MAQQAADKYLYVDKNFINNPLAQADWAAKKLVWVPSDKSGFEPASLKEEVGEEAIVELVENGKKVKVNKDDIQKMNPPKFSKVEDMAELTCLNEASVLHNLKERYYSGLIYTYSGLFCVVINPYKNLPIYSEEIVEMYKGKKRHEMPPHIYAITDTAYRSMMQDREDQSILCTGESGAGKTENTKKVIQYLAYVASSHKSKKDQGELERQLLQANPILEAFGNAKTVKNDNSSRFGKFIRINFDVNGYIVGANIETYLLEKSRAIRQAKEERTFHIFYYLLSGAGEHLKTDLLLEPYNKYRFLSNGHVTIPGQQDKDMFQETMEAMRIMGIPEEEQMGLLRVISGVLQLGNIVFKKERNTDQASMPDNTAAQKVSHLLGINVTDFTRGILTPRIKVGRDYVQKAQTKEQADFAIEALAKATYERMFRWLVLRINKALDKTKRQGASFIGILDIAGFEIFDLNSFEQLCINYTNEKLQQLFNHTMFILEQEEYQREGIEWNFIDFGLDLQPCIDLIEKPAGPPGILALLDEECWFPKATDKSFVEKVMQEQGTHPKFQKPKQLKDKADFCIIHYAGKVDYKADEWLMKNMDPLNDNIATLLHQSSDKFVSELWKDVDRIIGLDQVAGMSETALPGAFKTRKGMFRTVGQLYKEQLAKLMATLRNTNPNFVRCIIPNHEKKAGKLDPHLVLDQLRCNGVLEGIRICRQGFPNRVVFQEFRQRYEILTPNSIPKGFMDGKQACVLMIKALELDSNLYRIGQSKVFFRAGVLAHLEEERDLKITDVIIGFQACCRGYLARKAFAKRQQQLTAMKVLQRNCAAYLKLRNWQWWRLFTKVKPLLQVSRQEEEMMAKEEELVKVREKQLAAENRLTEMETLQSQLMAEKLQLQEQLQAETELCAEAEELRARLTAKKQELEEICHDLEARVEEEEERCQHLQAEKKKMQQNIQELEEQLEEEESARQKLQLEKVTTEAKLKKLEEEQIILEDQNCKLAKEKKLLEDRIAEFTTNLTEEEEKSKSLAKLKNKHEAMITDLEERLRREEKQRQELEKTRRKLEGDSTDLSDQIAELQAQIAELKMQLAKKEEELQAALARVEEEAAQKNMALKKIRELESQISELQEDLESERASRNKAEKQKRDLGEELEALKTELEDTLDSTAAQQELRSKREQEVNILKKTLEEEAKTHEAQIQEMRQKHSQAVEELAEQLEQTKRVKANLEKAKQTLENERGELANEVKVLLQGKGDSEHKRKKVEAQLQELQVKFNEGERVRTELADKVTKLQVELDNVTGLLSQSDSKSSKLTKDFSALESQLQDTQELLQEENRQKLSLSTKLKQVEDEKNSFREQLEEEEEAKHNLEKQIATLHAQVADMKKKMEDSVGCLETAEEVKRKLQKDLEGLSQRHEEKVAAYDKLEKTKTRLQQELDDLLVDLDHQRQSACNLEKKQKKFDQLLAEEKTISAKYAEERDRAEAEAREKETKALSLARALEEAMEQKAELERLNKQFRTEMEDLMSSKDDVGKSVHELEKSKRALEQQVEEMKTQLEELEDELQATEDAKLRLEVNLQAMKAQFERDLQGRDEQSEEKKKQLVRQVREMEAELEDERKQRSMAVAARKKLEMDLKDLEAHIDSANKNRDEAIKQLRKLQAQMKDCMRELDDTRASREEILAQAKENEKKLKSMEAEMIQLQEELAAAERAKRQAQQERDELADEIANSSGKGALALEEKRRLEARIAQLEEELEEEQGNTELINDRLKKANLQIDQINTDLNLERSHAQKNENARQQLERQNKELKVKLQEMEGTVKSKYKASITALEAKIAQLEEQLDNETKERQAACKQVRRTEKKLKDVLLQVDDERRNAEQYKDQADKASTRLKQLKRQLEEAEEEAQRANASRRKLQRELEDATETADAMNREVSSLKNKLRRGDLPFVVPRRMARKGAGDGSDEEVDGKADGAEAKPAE

These are yes or no findings as the source states them, for the method shown. Binding seen in cells or lysates may run through a third protein. These calls come from enrichment with a bait or labelling near it, and not all partners need be listed.

“Talin-1, endogenous (from UniProt Q9Y490 1-2541)”: the binding result was “binds”.
In the case of “myosin-9 (MYH9), endogenous (from UniProt P35579 1-1960)” it was “binds”.

The values are drawn from article PMC8629984.
